# Measurements taken from article PMC10235067, “Increased renal elimination of endogenous and synthetic pyrimidine nucleosides in concentrative nucleoside transporter 1 deficient mice” (Nature Communications, 2023).
# Values joined by “and” are separate entries in the source; they are usually repeats but may differ in a detail not shown here. Equal entries are not always repeated.
# Legend:
# [1] = system: CNT1; assay: Untargeted metabolomics of Slc28a1-/- vs Slc28a1+/+ mouse plasma (ad libitum); type: in vivo
# [2] = system: CNT1; assay: Untargeted metabolomics of Slc28a1-/- vs Slc28a1+/+ mouse urine (24 h, ad libitum); settings: for Fold Change / log2(FC): Slc28a1-/- / Slc28a1+/+; for change of level in Slc28a1-/- mouse urine (untargeted metabolomics): Slc28a1-/- vs Slc28a1+/+
# [3] = system: CNT1; settings: Slc28a1-/- (CNT1 KO) mice, one value per animal, Figure 2D-F source data
Compound,Fold Change [1],log2(FC) [1],Fold Change [2],log2(FC) [2],"Urine level of nucleoside / deoxynucleoside / nucleobase, CNT1 KO Urine (individual mice) [3]",change of level in Slc28a1-/- mouse urine (untargeted metabolomics) [2]
O=c1[nH]cnc2nc[nH]c12 [Hypoxanthine],0.8 and 0.7546,-0.4 and -0.4062,1.4699,0.5557,,
Nc1ncnc2c1ncn2[C@H]1C[C@H](O)[C@@H](CO)O1 [deoxyadenosine],,,,,0,
Oc1ccnc2ccccc12 [4-Hydroxyquinoline],1.2 and 1.2087,0.3 and 0.2735,27.672,4.7904,,
C=C1CCCCC1 [Methylenecyclohexane],4.3 and 4.303,2.1 and 2.1053,1.3027,0.3815,,
CN1CC(=O)NC1=N [Creatinine],0.6 and 0.6078,-0.7 and -0.7183,,,,unaltered
CN(CC(=O)O)C(=N)N [Creatine],,-0.5 and -0.548,,,,unaltered
